From the supplement of paper PMC10849652
Some of the results follow.

The chains behind the UniProt entries cited, without tags or fusion partners. Where a name states a change or a piece, a line headed by the entry shows the natural chain unless it says otherwise.
UniProt Q9H0U3: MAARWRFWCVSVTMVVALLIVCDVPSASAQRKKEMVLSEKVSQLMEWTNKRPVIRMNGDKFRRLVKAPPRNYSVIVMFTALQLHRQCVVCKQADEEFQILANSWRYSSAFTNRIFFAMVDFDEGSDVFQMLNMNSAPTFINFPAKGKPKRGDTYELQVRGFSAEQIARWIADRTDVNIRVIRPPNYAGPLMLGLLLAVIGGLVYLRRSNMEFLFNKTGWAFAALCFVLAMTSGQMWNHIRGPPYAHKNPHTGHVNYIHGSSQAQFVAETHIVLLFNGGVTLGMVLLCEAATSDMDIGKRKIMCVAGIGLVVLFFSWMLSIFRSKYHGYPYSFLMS
UniProt Q8IWT6: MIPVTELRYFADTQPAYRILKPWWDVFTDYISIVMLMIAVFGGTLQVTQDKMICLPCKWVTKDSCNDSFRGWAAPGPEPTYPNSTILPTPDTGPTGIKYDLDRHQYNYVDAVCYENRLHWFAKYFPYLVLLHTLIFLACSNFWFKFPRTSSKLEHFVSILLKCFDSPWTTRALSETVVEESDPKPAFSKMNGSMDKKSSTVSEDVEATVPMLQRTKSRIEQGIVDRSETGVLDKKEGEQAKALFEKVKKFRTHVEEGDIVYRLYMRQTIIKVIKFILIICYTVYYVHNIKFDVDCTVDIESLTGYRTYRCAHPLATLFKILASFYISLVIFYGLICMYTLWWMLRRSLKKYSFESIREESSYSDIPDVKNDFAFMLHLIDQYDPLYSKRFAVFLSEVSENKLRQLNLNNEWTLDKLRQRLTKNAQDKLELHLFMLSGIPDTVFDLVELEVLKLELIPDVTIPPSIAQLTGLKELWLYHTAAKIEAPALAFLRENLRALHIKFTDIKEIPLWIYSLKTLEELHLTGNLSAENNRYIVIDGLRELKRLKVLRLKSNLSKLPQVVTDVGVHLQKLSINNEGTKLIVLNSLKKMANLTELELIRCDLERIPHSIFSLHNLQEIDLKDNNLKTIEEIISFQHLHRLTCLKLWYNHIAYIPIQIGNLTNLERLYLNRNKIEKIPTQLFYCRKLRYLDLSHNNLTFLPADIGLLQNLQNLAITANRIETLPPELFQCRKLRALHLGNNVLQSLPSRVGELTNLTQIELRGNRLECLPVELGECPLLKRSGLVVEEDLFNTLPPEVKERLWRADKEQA
UniProt O00754: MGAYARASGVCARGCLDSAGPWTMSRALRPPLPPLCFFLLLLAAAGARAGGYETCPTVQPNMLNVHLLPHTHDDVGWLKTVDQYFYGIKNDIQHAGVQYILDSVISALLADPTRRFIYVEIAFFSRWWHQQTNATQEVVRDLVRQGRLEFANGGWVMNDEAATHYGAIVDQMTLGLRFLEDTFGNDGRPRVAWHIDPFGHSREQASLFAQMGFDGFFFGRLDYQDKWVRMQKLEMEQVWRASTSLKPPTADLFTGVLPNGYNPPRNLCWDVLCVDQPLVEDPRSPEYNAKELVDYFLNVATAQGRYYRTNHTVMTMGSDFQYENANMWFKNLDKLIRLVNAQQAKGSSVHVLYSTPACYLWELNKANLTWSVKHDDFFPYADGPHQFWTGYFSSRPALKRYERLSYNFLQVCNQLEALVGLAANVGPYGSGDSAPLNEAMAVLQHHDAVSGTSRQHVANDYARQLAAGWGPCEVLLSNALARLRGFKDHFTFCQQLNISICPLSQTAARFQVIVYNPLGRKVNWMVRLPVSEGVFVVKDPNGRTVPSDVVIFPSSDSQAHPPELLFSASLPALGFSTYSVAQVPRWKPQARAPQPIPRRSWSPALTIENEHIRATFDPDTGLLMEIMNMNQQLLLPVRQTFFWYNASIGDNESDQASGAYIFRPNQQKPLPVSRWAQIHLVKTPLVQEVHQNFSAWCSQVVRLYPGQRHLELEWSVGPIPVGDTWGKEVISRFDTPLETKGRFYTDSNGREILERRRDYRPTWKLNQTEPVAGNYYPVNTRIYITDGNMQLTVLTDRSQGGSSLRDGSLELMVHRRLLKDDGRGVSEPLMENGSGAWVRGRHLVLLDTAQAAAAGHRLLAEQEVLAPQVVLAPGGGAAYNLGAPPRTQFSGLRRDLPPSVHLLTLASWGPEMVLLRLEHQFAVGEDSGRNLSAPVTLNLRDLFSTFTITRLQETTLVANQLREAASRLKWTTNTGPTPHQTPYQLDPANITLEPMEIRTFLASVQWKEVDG
UniProt O95777: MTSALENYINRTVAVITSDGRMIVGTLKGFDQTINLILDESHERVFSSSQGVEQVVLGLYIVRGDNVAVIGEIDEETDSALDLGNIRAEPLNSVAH
UniProt P78559: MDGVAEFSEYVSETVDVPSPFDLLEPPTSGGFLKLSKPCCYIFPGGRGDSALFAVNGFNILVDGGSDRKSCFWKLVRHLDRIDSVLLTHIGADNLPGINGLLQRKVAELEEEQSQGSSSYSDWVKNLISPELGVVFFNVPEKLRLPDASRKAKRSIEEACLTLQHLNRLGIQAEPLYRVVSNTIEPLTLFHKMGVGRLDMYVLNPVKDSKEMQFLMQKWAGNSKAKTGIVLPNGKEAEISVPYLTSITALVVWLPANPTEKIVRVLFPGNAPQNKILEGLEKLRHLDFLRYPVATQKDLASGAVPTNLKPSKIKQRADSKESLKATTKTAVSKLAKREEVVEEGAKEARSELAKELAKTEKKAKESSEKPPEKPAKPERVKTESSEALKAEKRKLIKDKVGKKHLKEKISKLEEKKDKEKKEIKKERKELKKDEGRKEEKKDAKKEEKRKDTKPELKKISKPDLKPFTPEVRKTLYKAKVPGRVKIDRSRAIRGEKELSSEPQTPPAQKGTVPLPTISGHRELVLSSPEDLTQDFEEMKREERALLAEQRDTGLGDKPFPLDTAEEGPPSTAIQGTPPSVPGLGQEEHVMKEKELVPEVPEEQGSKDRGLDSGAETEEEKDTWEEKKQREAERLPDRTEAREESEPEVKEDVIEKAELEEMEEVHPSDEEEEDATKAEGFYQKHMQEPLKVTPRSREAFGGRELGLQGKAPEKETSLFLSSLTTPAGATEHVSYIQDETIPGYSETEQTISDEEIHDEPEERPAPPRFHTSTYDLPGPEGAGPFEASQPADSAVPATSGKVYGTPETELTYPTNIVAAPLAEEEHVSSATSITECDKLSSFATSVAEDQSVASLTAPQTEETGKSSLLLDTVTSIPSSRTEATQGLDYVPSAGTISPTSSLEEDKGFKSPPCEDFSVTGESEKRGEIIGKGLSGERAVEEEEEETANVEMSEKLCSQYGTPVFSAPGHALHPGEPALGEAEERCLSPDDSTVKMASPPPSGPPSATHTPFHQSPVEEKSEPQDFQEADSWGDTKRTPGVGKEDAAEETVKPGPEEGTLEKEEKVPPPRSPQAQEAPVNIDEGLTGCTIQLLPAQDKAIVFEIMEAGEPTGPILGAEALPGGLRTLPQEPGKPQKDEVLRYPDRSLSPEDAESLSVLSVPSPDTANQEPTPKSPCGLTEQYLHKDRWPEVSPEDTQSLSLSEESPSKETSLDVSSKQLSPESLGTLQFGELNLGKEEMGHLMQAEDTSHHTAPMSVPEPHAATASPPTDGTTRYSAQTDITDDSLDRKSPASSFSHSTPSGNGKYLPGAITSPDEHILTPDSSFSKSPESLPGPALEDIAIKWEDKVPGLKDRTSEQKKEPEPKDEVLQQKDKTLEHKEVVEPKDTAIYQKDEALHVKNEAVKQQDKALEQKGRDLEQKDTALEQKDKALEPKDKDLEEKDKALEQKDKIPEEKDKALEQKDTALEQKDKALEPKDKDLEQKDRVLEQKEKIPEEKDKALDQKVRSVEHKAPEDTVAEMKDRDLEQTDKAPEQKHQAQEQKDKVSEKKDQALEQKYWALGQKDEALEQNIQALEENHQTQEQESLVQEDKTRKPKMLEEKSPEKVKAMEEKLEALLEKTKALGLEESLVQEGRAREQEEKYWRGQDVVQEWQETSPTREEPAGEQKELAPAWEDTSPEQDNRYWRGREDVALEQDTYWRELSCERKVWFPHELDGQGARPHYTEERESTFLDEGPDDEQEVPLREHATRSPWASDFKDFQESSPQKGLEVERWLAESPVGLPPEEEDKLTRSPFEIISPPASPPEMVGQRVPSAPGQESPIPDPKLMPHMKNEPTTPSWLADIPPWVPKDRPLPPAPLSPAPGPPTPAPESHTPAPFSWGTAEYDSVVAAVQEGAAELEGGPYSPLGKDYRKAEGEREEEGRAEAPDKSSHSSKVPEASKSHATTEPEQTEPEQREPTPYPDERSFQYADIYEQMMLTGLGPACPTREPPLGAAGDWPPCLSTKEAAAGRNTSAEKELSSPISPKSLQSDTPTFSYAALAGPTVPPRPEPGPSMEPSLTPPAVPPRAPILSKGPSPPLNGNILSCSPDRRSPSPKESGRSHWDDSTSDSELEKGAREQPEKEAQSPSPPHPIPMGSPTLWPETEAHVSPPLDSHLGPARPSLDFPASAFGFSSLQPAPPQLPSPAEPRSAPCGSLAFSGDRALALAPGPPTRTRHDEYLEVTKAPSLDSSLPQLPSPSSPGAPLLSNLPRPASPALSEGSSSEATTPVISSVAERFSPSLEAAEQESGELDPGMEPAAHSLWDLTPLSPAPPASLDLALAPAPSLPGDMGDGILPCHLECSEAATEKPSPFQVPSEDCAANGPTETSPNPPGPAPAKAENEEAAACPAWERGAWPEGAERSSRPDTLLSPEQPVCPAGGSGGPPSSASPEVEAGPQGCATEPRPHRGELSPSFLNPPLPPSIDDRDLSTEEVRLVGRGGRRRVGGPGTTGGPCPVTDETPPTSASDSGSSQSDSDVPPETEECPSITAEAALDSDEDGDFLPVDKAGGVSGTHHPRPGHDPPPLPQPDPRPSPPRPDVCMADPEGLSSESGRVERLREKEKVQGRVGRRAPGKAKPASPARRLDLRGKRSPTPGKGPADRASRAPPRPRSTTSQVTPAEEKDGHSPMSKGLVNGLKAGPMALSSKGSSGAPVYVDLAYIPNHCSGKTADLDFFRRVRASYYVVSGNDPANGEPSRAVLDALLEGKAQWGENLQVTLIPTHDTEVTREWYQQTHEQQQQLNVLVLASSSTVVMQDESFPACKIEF
UniProt O00462: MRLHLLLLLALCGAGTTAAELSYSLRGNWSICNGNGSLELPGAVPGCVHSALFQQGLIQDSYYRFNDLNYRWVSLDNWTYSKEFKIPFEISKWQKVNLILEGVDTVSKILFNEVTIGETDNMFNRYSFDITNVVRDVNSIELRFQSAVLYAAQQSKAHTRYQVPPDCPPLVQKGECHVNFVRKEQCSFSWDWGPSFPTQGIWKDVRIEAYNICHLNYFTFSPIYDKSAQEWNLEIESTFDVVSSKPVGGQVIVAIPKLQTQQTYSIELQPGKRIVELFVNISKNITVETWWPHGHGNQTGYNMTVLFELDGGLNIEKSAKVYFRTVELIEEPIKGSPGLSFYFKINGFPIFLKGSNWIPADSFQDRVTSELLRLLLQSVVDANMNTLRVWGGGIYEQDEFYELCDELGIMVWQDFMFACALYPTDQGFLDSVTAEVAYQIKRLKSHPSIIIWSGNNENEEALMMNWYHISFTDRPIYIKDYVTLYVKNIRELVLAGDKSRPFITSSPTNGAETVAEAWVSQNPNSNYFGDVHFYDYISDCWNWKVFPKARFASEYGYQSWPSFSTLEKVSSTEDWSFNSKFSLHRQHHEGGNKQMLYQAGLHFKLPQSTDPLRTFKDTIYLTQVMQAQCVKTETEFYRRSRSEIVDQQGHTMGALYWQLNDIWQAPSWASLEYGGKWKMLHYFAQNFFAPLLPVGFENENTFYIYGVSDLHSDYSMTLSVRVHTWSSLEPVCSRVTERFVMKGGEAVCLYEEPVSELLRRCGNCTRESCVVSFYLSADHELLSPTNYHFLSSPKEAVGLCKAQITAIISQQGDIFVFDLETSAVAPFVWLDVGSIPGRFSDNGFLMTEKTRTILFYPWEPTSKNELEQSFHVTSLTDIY
UniProt Q8N5G2: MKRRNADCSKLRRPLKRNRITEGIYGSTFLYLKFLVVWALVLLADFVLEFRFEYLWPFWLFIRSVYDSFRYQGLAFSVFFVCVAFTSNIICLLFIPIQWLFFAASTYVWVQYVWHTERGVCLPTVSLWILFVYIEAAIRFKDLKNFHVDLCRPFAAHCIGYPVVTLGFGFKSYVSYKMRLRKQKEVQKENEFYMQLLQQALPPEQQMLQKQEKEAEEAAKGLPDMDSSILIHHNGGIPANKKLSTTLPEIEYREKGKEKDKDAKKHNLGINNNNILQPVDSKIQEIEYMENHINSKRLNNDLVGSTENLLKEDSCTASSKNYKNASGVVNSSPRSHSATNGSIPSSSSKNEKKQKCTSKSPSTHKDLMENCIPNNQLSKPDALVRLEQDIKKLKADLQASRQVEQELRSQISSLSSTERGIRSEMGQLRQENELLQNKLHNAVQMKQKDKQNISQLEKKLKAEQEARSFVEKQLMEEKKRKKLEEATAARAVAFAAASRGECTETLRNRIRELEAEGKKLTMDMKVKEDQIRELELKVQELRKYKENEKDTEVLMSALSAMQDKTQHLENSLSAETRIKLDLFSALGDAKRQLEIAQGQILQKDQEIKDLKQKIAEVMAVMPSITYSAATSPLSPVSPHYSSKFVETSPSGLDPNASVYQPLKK

Columns and labels:
Assay in all cases: log2 fold change, soluble protein after heating vs DMSO (PISA); higher = thermal stabilisation; K562 cells, 10 uM, 30 min; active = over 0.2 and 3.5 SD of the protein, either way, in both replicates (recomputed)
[1] = compound: CS(=O)(=O)c1ccc(-c2cnc(N)c(C(=O)Nc3ccccc3)n2)cc1
In short: (§1)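 K562 cells at 2×10^6 cells/mL were given 10 μM compound for 30 min. Aliquots then went through 3 min of heating across 48°C-58°C, were pooled, and were extracted in PBS with 0.5% NP-40 at 4°C, and the supernatant after 21,000xg for 90 min was quantified by TMTpro 16plex LC-MS/MS with channel sums equalised. Thermal stability relative to control samples, from duplicates, is given as log2 fold change.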

crizotinib = compound: C[C@@H](Oc1cc(-c2cnn(C3CCNCC3)c2)cnc1N)c1c(Cl)ccc(F)c1Cl [crizotinib]
In short: as §1

[2] = compound: C[C@@H]1COCCN1C2=NC(=NC(=C2)C3(CC3)S(=O)(=O)C)C4=C5C=CNC5=CC=C4
In short: as §1

[3] = compound: C[C@H](C1=CC=C(C=C1)C(=O)NC2=C3C=CNC3=NC=C2)N
In short: as §1

duvelisib = compound: C[C@H](Nc1ncnc2nc[nH]c12)c1cc2cccc(Cl)c2c(=O)n1-c1ccccc1 [duvelisib]
In short: as §1

gandotinib = compound: Cc1cc(Nc2cc(CN3CCOCC3)c3nc(C)c(Cc4ccc(Cl)cc4F)n3n2)n[nH]1 [gandotinib]
In short: as §1

tozasertib = compound: Cc1cc(Nc2cc(N3CCN(C)CC3)nc(Sc3ccc(NC(=O)C4CC4)cc3)n2)n[nH]1 [tozasertib]
In short: as §1

[4] = compound: Cc1cc(SCc2sc(-c3ccc(C(F)(F)F)cc3)nc2C)ccc1OCC(=O)O
In short: as §1

doramapimod = compound: Cc1ccc(-n2nc(C(C)(C)C)cc2NC(=O)Nc2ccc(OCCN3CCOCC3)c3ccccc23)cc1 [doramapimod]
In short: as §1

ispinesib = compound: Cc1ccc(C(=O)N(CCCN)[C@@H](c2nc3cc(Cl)ccc3c(=O)n2Cc2ccccc2)C(C)C)cc1 [ispinesib]
In short: as §1

bafetinib = compound: Cc1ccc(NC(=O)c2ccc(CN3CC[C@H](N(C)C)C3)c(C(F)(F)F)c2)cc1Nc1nccc(-c2cncnc2)n1 [bafetinib]
In short: as §1

[5] = compound: Cc1cccc(CC(=O)N2CCc3c2ccc(-c2cn(C)c4ncnc(N)c24)c3F)n1
In short: as §1

nilotinib = compound: Cc1cn(-c2cc(NC(=O)c3ccc(C)c(Nc4nccc(-c5cccnc5)n4)c3)cc(C(F)(F)F)c2)cn1 [nilotinib]
In short: as §1

[6] = compound: Cc1nc(Nc2n[nH]c3c2CN(C(=O)N[C@H](CN(C)C)c2ccccc2)C3(C)C)c2sccc2n1
In short: as §1

dasatinib = compound: Cc1nc(Nc2ncc(C(=O)Nc3c(C)cccc3Cl)s2)cc(N2CCN(CCO)CC2)n1 [dasatinib]
In short: as §1

[7] = compound: Cc1ncc(-c2ccnc(Nc3ccc(S(C)(=O)=O)cc3)n2)n1C(C)C
In short: as §1

[8] = compound: Cn1cc(-c2ccc3c(c2)CCN3C(=O)Cc2cccc(C(F)(F)F)c2)c2c(N)ncnc21
In short: as §1

[9] = compound: Cn1cc(-c2ccc3nnc(C(F)(F)c4ccc5ncccc5c4)n3n2)cn1
In short: as §1

tipifarnib = compound: Cn1cncc1[C@@](N)(c1ccc(Cl)cc1)c1ccc2c(c1)c(-c1cccc(Cl)c1)cc(=O)n2C [tipifarnib]
In short: as §1

mubritinib = compound: FC(F)(F)c1ccc(/C=C/c2nc(COc3ccc(CCCCn4ccnn4)cc3)co2)cc1 [mubritinib]
In short: as §1

Measured: log2 fold change

MAGT1 (UniProt Q9H0U3)
inactive: [1] 0.021 | crizotinib 0.029 | [2] -0.013 | [3] 0.093 | duvelisib -0.025 | gandotinib 0.033 | tozasertib 0.029 | [4] 0.011 | doramapimod 0.029 | ispinesib -0.017 | bafetinib -0.059 | [5] -0.001 | nilotinib -0.012 | [6] 0.029 | dasatinib 0.018 | [7] -0.067 | [8] -0.045 | [9] 0.038 | tipifarnib 0.014 | mubritinib -0.041

LRRC8A (UniProt Q8IWT6)
inactive: [1] 0.006 | crizotinib -0.016 | [2] -0.185 | [3] 0.125 | duvelisib -0.066 | gandotinib 0.088 | tozasertib -0.034 | [4] 0.056 | doramapimod 0.188 | ispinesib -0.085 | bafetinib 0.045 | [5] 0.009 | nilotinib -0.014 | [6] 0.033 | dasatinib 0.012 | [7] -0.036 | [8] -0.179 | [9] -0.056 | tipifarnib 0.056 | mubritinib 0.139

MAN2B1 (UniProt O00754)
inactive: [1] 0.015 | crizotinib 0.003 | [2] 0.056 | [3] -0.037 | duvelisib -0.007 | gandotinib 0.099 | tozasertib 0.008 | [4] -0.022 | doramapimod -0.02 | ispinesib 0.008 | bafetinib -0.055 | [5] -0.021 | nilotinib 0.039 | [6] -0.023 | dasatinib 0.005 | [7] 0.063 | [8] -0.021 | [9] 0.027 | tipifarnib 0.069 | mubritinib 0.088

MACF1 (UniProt Q9UPN3)
inactive: [1] -0.041 | crizotinib -0.038 | [2] -0.059 | [3] 0.115 | duvelisib 0 | gandotinib -0.061 | tozasertib 0.038 | [4] 0.08 | doramapimod 0.091 | ispinesib -0.131 | bafetinib 0.118 | [5] -0.003 | nilotinib 0.024 | [6] -0.143 | dasatinib -0.075 | [7] -0.086 | [8] -0.013 | [9] -0.004 | tipifarnib 0.045 | mubritinib -0.009

LSM8 (UniProt O95777)
inactive: [1] -0.031 | crizotinib 0.061 | [2] 0.088 | [3] -0.02 | duvelisib 0.084 | gandotinib 0.05 | tozasertib -0.013 | [4] -0.076 | doramapimod -0.017 | ispinesib 0.035 | bafetinib -0.002 | [5] -0.012 | nilotinib 0 | [6] 0.022 | dasatinib 0.033 | [7] 0.003 | [8] 0.034 | [9] -0.012 | tipifarnib 0.017 | mubritinib 0.038

LSM12 isoform 2 (UniProt Q3MHD2)
inactive: [1] -0.008 | crizotinib 0.003 | [2] -0.154 | [3] -0.03 | duvelisib -0.035 | gandotinib -0.08 | tozasertib 0.073 | [4] -0.051 | doramapimod 0.06 | ispinesib 0.087 | bafetinib 0.046 | [5] -0.072 | nilotinib 0.054 | [6] -0.014 | dasatinib 0.037 | [7] 0.026 | [8] 0.074 | [9] -0.031 | tipifarnib -0.013 | mubritinib 0.012

MAP1A isoform 2 (UniProt P78559)
inactive: [1] 0.052 | crizotinib -0.038 | [2] -0.152 | [3] 0.257 | duvelisib -0.102 | gandotinib 0.064 | tozasertib 0.024 | [4] 0.035 | doramapimod 0.184 | ispinesib -0.118 | bafetinib 0.034 | [5] 0.002 | nilotinib -0.009 | [6] 0.058 | dasatinib 0.02 | [7] -0.064 | [8] -0.093 | [9] 0.007 | tipifarnib 0.09 | mubritinib -0.043

2 records picked at random from those above:
MAN2B1 (UniProt O00754)
inactive: [1] 0.015 | crizotinib 0.003 | [2] 0.056 | [3] -0.037 | duvelisib -0.007 | gandotinib 0.099 | tozasertib 0.008 | [4] -0.022 | doramapimod -0.02 | ispinesib 0.008 | bafetinib -0.055 | [5] -0.021 | nilotinib 0.039 | [6] -0.023 | dasatinib 0.005 | [7] 0.063 | [8] -0.021 | [9] 0.027 | tipifarnib 0.069 | mubritinib 0.088

MAP1A isoform 2 (UniProt P78559)
inactive: [1] 0.052 | crizotinib -0.038 | [2] -0.152 | [3] 0.257 | duvelisib -0.102 | gandotinib 0.064 | tozasertib 0.024 | [4] 0.035 | doramapimod 0.184 | ispinesib -0.118 | bafetinib 0.034 | [5] 0.002 | nilotinib -0.009 | [6] 0.058 | dasatinib 0.02 | [7] -0.064 | [8] -0.093 | [9] 0.007 | tipifarnib 0.09 | mubritinib -0.043

(cont.)

LYRM1 (UniProt O43325)
inactive: [1] 0.019 | crizotinib -0.262 | [2] 0.002 | [3] 0.006 | duvelisib 0.05 | gandotinib 0.012 | tozasertib -0.062 | [4] -0.023 | doramapimod 0.37 | ispinesib 0.019 | bafetinib -0.122 | [5] 0.272 | nilotinib 0.008 | [6] -0.018 | dasatinib -0.07 | [7] 0.011 | [8] 0.095 | [9] 0.143 | tipifarnib 0.002 | mubritinib 0.037

MANBA (UniProt O00462)
inactive: [1] 0.005 | crizotinib -0.05 | [2] 0.07 | [3] -0.019 | duvelisib 0.02 | gandotinib 0.101 | tozasertib 0 | [4] -0.002 | doramapimod 0.052 | ispinesib -0.057 | bafetinib -0.104 | [5] 0.015 | nilotinib 0.003 | [6] 0.026 | dasatinib 0.068 | [7] -0.017 | [8] 0.018 | [9] -0.041 | tipifarnib 0.054 | mubritinib 0.064

MACO1 (UniProt Q8N5G2)
inactive: [1] 0.002 | crizotinib -0.004 | [2] -0.049 | [3] 0.022 | duvelisib 0.033 | gandotinib -0.071 | tozasertib -0.029 | [4] 0.008 | doramapimod 0.037 | ispinesib -0.154 | bafetinib -0.003 | [5] -0.045 | nilotinib -0.011 | [6] 0.046 | dasatinib -0.098 | [7] 0.035 | [8] -0.052 | [9] -0.085 | tipifarnib -0.021 | mubritinib 0.029

LRSAM1 (UniProt Q6UWE0)
inactive: [1] 0.055 | crizotinib -0.012 | [2] 0.077 | [3] -0.04 | duvelisib 0.023 | gandotinib -0.045 | tozasertib 0 | [4] 0.049 | doramapimod 0.06 | ispinesib -0.017 | bafetinib -0.036 | [5] 0.023 | nilotinib -0.011 | [6] -0.073 | dasatinib -0.026 | [7] 0.029 | [8] 0.055 | [9] -0.028 | tipifarnib -0.001 | mubritinib 0.072

MAGEC1 (UniProt O60732)
inactive: [1] 0.046 | crizotinib -0.075 | [2] -0.14 | [3] 0.185 | duvelisib -0.039 | gandotinib 0.103 | tozasertib 0.142 | [4] 0.029 | doramapimod 0.075 | ispinesib -0.103 | bafetinib 0.062 | [5] 0.025 | nilotinib 0.032 | [6] -0.046 | dasatinib -0.008 | [7] 0.065 | [8] -0.141 | [9] -0.04 | tipifarnib -0.085 | mubritinib -0.081

MAP7 isoform 7 (UniProt Q14244)
inactive: [1] -0.089 | crizotinib 0 | [2] -0.43 | [3] 0.356 | duvelisib -0.155 | gandotinib 0.121 | tozasertib 0.004 | [4] 0.024 | doramapimod 0.21 | ispinesib -0.199 | bafetinib 0.17 | [5] -0.024 | nilotinib 0.006 | [6] 0.145 | dasatinib 0.155 | [7] -0.091 | [8] -0.261 | [9] -0.08 | tipifarnib 0.126 | mubritinib -0.101

MARCHF6 (UniProt O60337)
inactive: [1] -0.057 | crizotinib -0.104 | [2] -0.108 | [3] -0.104 | duvelisib 0.065 | gandotinib -0.158 | tozasertib 0.014 | [4] 0.023 | doramapimod 0.001 | ispinesib -0.095 | bafetinib -0.202 | [5] 0.031 | nilotinib -0.091 | [6] 0.011 | dasatinib -0.17 | [7] -0.004 | [8] -0.028 | [9] -0.034 | tipifarnib -0.026 | mubritinib 0.031

MACC1 (UniProt Q6ZN28)
inactive: [1] 0.054 | crizotinib -0.145 | [2] 0.085 | [3] -0.083 | duvelisib 0.049 | gandotinib -0.15 | tozasertib -0.017 | [4] -0.005 | doramapimod 0.076 | ispinesib 0.024 | bafetinib -0.018 | [5] -0.014 | nilotinib 0.066 | [6] -0.077 | dasatinib -0.123 | [7] -0.108 | [8] -0.163 | [9] -0.072 | tipifarnib -0.21 | mubritinib 0.039

MALSU1 (UniProt Q96EH3)
inactive: [1] -0.026 | crizotinib -0.055 | [2] -0.008 | [3] -0.04 | duvelisib 0.08 | gandotinib -0.008 | tozasertib -0.002 | [4] 0.048 | doramapimod 0.098 | ispinesib 0.028 | bafetinib -0.011 | [5] -0.004 | nilotinib 0 | [6] -0.017 | dasatinib -0.128 | [7] -0.014 | [8] -0.025 | [9] -0.007 | tipifarnib 0.045 | mubritinib -0.004
